Some results were stated once for a whole list of compounds, not compound by compound.
Key:
[1] = test system: Botrytis cinerea; experiment: Preventative fungicidal control of Botrytis cinerea on leaves of green pepper (Botrci P1); type: in vivo, Botrytis cinerea on green pepper seedlings; conditions: 300 ppm active substance, sprayed the day before inoculation, assessed after 5 days; untreated plants 100% infected
[2] = test system: Puccinia recondita; experiment: Preventative control of brown rust on wheat (Puccrt P1); type: in vivo, Puccinia recondita on wheat seedlings; conditions: 300 ppm active substance, sprayed the day before inoculation, assessed after 24 h + 6 days; untreated plants 80% infected
[3] = test system: Alternaria solani; experiment: Preventative fungicidal control of early blight on tomatoes (Alteso P1); type: in vivo, Alternaria solani on tomato plants; conditions: 300 ppm active substance, sprayed the day before inoculation, assessed after 5 days; untreated plants 90% infected

| SMILES | infection (extent of fungal attack, % diseased leaf area) [1] [%] | infection (extent of fungal attack, % diseased leaf area) [2] [%] | infection (extent of fungal attack, % diseased leaf area) [3] [%] |
| --- | --- | --- | --- |
| CC(O)(Cn1cncn1)c1ccc(Oc2ccc(Cl)cc2Cl)cc1Cl (stereo not drawn) [I-1, 2-[2-chloro-4-(2,4-dichlorophenoxy)phenyl]-1-(1,2,4-triazol-1-yl)propan-2-ol] | ≤ 5 | ≤ 15 | ≤ 20 |
| COC(C)(Cn1cncn1)c1ccc(Oc2ccc(Cl)cc2Cl)cc1Cl (stereo not drawn) [I-2, 1-[2-[2-chloro-4-(2,4-dichlorophenoxy)phenyl]-2-methoxy-propyl]-1,2,4-triazole] | ≤ 5 | ≤ 15 | ≤ 20 |
